# Test system: 5-HT1C receptor
# Settings: in vitro
smiles,measurement,value
"Cc1cc2c(s1)Nc1ccccc1N=C2N1CCN(C)CC1 [anhydrous Form I olanzapine, 2-methyl-4-(4-methyl-1-piperazinyl)-10H-thieno[2,3-b][1,5]benzodiazepine]",activity at the 5-HT1C receptor,active

# — patent US5703232A, “Process and solvate of 2-methyl-thieno-benzodiazepine” (Eli Lilly and Company, priority 1996, dated 1997)
